Test results taken from article PMC12431657, “Discovery and mechanistic insights of dibenzoylmethane as a broad spectrum inhibitor of coronavirus” (PLOS Pathogens, 2025).
Structures can show the parent of a compound that is named as a salt. Where two headings read alike, the source gives them in different places. About 95 (3%) of roughly 3,300 compounds showed an effect of 50% or more. The list shows a part of the results.

System: HCoV-229E
Parameters: species or system Huh-7; HTS, protection from HCoV-229E induced cell death, luminescent cell viability (CellCounting-Lite 2.0), inhibition rate
Conditions: 24 h post infection, 1 h compound pre-incubation, 10 µM, inhibitor

SMILES	229E Inhibition rate	229E Inhibition rate (229E Inhibition rate, 24 h)
NC(=O)CC(N)C(=O)O (racemic) [DL-Asparagine]	3.9%	–
CO[C@H]([C@H](C)[C@H]1O[C@@]2(CC[C@@](C)([C@H]3CC[C@@](C)([C@@H]4O[C@@H]([C@H]5O[C@@](O)(CO)[C@H](C)C[C@@H]5C)C[C@@H]4C)O3)O2)C[C@H](O)[C@H]1C)[C@H](C)C(=O)O [Monensin B]	55.3%	–
O=C(O)C[C@H](O)C(=O)O [(S)-Malic acid]	12%	–
C=C(NC(=O)C(=C)NC(=O)c1csc(C2=N[C@@H]3c4csc(n4)[C@H]4NC(=O)c5csc(n5)[C@H]([C@](C)(O)[C@@H](C)O)NC(=O)[C@H]5CSC(=N5)/C(=C/C)NC(=O)[C@H]([C@@H](C)O)NC(=O)c5csc(n5)[C@]3(CC2)NC(=O)[C@H](C)NC(=O)C(=C)NC(=O)[C@H](C)NC(=O)[C@H]([C@@H](C)CC)N[C@@H]2C=Cc3c([C@H](C)O)cc(nc3[C@H]2O)C(=O)O[C@@H]4C)n1)C(N)=O [Thiostrepton]	5.1%	–
C[C@@H](O)[C@@H](C)O [2,3-Butanediol]	–	20.3%
COc1cc2c3c(cc4ccccc4c3c1OC)N(C)CC2 [Dehydronuciferine]	38.8%	–
CC(C)C[C@H](N)C(=O)O [L-Leucine]	13.3%	–
NC(=O)c1cccnc1 [Nicotinamide]	16.9%	–
NCCC(=O)N[C@@H](Cc1cnc[nH]1)C(=O)O [L-Carnosine]	14.6%	–
CC(=O)O[C@]12CCC(C)=CC[C@]13CC[C@H]2[C@@](C)(/C=C/C=C(\C)C(=O)O)OC3=O [Pseudolaric Acid A]	20.1%	–
CC1CCCCC1=O (stereo not drawn) [2-Methylcyclohexanone]	22.9%	–
C[C@@H]1O[C@@H](OC[C@H]2O[C@@H](Oc3c(-c4ccc(O)cc4)oc4cc(O)cc(O)c4c3=O)[C@H](O[C@@H]3O[C@@H](C)[C@H](O)[C@@H](O)[C@H]3O)[C@@H](O)[C@@H]2O)[C@H](O)[C@H](O)[C@H]1O [Clitorin]	8.3%	–
COc1ccc(-c2oc3c(CCC(C)(C)O)c(O)cc(O)c3c(=O)c2O)cc1 [Wushanicaritin]	51.4%	–
CC[C@H](CC[C@@H](C)[C@H]1CC[C@H]2[C@@H]3CC[C@H]4C[C@@H](O)CC[C@]4(C)[C@H]3CC[C@]12C)C(C)C [Stigmastanol]	12.4%	–
C/C=C/C#CC#C[C@@H](O)[C@@H](/C=C/CCCO)O[C@@H]1O[C@H](CO)[C@@H](O)[C@H](O)[C@H]1O [Lobetyolin]	45%	–
O=C(O)[C@@H]1C[C@H](O)CN1 [cis-4-Hydroxy-L-proline]	15.4%	–
OC[C@H]1O[C@H](OC[C@H]2O[C@H](OC[C@H]3O[C@H](O[C@]4(CO)O[C@H](CO)[C@@H](O)[C@@H]4O)[C@H](O)[C@@H](O)[C@@H]3O)[C@H](O)[C@@H](O)[C@H]2O)[C@H](O)[C@@H](O)[C@H]1O [Stachyose (tetrahydrate)]	43.8%	–

Taken from above.
OC[C@H]1O[C@H](OC[C@H]2O[C@H](OC[C@H]3O[C@H](O[C@]4(CO)O[C@H](CO)[C@@H](O)[C@@H]4O)[C@H](O)[C@@H](O)[C@@H]3O)[C@H](O)[C@@H](O)[C@H]2O)[C@H](O)[C@@H](O)[C@H]1O [Stachyose (tetrahydrate)] – 229E Inhibition rate: 43.8%
C=C(NC(=O)C(=C)NC(=O)c1csc(C2=N[C@@H]3c4csc(n4)[C@H]4NC(=O)c5csc(n5)[C@H]([C@](C)(O)[C@@H](C)O)NC(=O)[C@H]5CSC(=N5)/C(=C/C)NC(=O)[C@H]([C@@H](C)O)NC(=O)c5csc(n5)[C@]3(CC2)NC(=O)[C@H](C)NC(=O)C(=C)NC(=O)[C@H](C)NC(=O)[C@H]([C@@H](C)CC)N[C@@H]2C=Cc3c([C@H](C)O)cc(nc3[C@H]2O)C(=O)O[C@@H]4C)n1)C(N)=O [Thiostrepton] – 229E Inhibition rate: 5.1%

The list continues.

SMILES	229E Inhibition rate	229E Inhibition rate (229E Inhibition rate, 24 h)
COC(=O)CCCC(=O)O [5-Methoxy-5-oxopentanoic acid]	19.1%	–
CCCCCCCCCCCCCCCCC(C(=O)O)C(O)(CC(=O)O)C(=O)O (stereo not drawn) [Agaric acid]	18.4%	–
COc1cc(C[C@@H](CO)[C@H](CO)Cc2ccc(O)c(OC)c2)ccc1O [(+)-Secoisolariciresinol]	–	11.2%
CC(=O)O[C@H]1CC[C@]2(C)C3=C(CC[C@H]2C1(C)C)[C@]1(C)C[C@@H](O)[C@H]([C@@H](CCC=C(C)C)C(=O)O)[C@@]1(C)CC3 [3-O-Acetyl-16α-hydroxytrametenolic acid]	8.3%	–
C[C@@H]1O[C@@H](OC[C@H]2O[C@@H](Oc3c(-c4ccc(O)c(O)c4)oc4cc(O)cc(O)c4c3=O)[C@H](O)[C@@H](O)[C@@H]2O)[C@H](O)[C@H](O)[C@H]1O [Rutin (hydrate)]	–	19%
CC(C)(C(=O)O)C(=O)O [Dimethylmalonic acid]	0%	–
CC[C@@H](C(=O)[C@@H](C)[C@@H](O)[C@H](C)CCc1ccc(C)c(O)c1C(=O)O)[C@H]1O[C@](CC)([C@H]2CC[C@](O)(CC)[C@H](C)O2)C[C@@H]1C [Lasalocid (sodium)]	–	24.8%
CC1(C)CC[C@]2(C(=O)O[C@@H]3O[C@H](CO)[C@@H](O)[C@H](O)[C@H]3O)CC[C@]3(C)C(=CC[C@@H]4[C@@]5(C)CC[C@H](O[C@@H]6O[C@H](C(=O)O)[C@@H](O)[C@H](O)[C@H]6O[C@H]6OC[C@@H](O)[C@H](O)[C@H]6O)C(C)(C)[C@@H]5CC[C@]43C)[C@@H]2C1 [Pseudoginsenoside RT1]	15.5%	–
O=c1c(O)c(-c2ccc(O)c(O)c2)oc2c(O[C@@H]3O[C@H](CO)[C@@H](O)[C@H](O)[C@H]3O)c(O)cc(O)c12 [Gossypin]	15.7%	–
C[N+]1(C)CCC[C@H]1C(=O)[O-] [Stachydrine hydrochloride]	–	11.8%
CC(=O)O[C@H]1C[C@@]2(C)[C@@H](C[C@@H](O)[C@H]3[C@@]4(C)CC[C@@H](O)[C@@H](C)[C@@H]4CC[C@@]32C)/C1=C(\CCC=C(C)C)C(=O)O [Fusidic acid]	–	31.2%
O=C(c1ccc(OCCN2CCCCC2)cc1)c1c(-c2ccc(O)cc2)sc2cc(O)ccc12 [Raloxifene (hydrochloride)]	0%	–
CC(=O)CCC=C(C)C [Sulcatone]	21.2%	–
Oc1cc(O)cc(-c2cc3ccc(O)cc3o2)c1 [Moracin M]	14.7%	–
C[C@@]12CC[C@@H]3[C@@](CC[C@H]4[C@@]3(C)CCC[C@@]4(C)C(=O)O)(CC1=O)C2 [Isosteviol]	19%	–
CC[C@@]1([C@H]2O[C@H]([C@H]3O[C@@](O)(CO)[C@H](C)C[C@@H]3C)C[C@H]2C)CC[C@H]([C@@]2(C)CC[C@]3(C[C@H](O)[C@@H](C)[C@@H]([C@H](C)[C@H](OC)[C@@H](C)C(=O)O)O3)O2)O1 [Monensin sodium salt]	24.5%	–
